Test results published in article PMC3475689, “Leishmania donovani Argininosuccinate Synthase Is an Active Enzyme Associated with Parasite Pathogenesis” (PLoS Neglected Tropical Diseases, 2012).
Results are given in words; binding and its absence hold for the method and conditions named. In cells and extracts the contact can be indirect. Binding calls can cover weak binding; strength is not graded here.

T1: LdPEX5, endogenous peroxin 5 of Leishmania donovani (Leishmania donovani (endogenous in Ld1S2D parasites))
T1 sequence: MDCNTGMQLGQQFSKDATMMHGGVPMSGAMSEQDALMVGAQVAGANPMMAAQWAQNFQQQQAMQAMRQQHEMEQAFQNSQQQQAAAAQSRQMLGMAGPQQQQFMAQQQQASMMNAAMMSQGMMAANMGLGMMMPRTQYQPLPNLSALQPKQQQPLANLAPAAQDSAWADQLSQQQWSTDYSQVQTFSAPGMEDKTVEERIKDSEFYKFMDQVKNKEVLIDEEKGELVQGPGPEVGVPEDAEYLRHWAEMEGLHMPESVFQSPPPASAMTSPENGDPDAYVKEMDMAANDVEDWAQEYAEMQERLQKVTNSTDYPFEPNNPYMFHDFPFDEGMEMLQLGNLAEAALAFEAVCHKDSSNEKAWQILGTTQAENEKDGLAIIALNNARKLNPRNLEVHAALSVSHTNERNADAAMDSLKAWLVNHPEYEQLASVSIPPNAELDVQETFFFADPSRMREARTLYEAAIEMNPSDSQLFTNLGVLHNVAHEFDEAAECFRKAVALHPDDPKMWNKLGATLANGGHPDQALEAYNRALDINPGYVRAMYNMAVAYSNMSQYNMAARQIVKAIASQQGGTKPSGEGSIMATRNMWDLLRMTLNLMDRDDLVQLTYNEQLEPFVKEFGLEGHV

B1: LdPEX5, endogenous peroxin 5 of Leishmania donovani (receptor, UniProt A0A3S7X906 1-625)
chain: T1 sequence

Key:
[1] = molecular target: T1, LdPEX5, endogenous peroxin 5 of Leishmania donovani (Leishmania donovani (endogenous in Ld1S2D parasites)); experiment: co-IP; immunoprecipitation with anti-LdPEX5 antibody (preimmune sera as control) from lysates of Ld1S2D axenic amastigotes or of V5His-LdASS^WT over expressing parasites; blot with anti-LdASS
[2] = molecular target: V5His-LdASS^WT over expressed in Leishmania donovani parasites (Leishmania donovani); experiment: pull-down; nickel agarose pull-down from lysate of V5His-LdASS^WT over expressing parasites; blot with anti-LdPEX5 or anti-LdASS

binding [1] | binding [2] | Molecule
binds |  | V5His-LdASS^WT over expressed in Leishmania donovani parasites (enzyme)
binds |  | LdASS, endogenous Leishmania donovani argininosuccinate synthase (enzyme)
 | binds | B1
